Results as given in PMC11018817, “Reciprocal antagonism of PIN1-APC/C^CDH1 governs mitotic protein stability and cell cycle entry” (Nature Communications, 2024).
These are yes or no findings as the source states them, for the method shown. In cells and extracts the contact can be indirect. Some entries that bind do so weakly or less than the wild type.

Protein sequences, listed by entry. Tags and fused reporters are not part of them.
UniProt Q9QUR7: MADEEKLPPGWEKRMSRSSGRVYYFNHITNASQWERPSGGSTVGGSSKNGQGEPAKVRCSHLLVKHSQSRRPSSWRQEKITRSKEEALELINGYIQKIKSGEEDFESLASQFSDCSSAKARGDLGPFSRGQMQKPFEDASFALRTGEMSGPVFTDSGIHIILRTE
UniProt Q9R1K5: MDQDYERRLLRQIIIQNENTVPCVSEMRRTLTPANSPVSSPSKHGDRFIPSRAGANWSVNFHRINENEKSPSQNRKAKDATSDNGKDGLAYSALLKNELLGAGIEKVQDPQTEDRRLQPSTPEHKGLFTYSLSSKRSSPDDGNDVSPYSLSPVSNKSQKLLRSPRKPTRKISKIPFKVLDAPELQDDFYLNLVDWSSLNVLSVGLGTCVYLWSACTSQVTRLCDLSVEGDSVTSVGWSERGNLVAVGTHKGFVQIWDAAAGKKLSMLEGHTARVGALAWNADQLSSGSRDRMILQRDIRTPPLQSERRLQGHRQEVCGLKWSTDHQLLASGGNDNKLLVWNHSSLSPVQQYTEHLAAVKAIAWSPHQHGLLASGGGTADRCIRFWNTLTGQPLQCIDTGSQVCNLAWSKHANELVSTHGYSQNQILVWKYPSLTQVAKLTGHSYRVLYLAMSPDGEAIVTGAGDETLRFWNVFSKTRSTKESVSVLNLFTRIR

Molecular target: endogenous Pin1 of transgenic mouse cells (mouse (endogenous in transgenic mouse cells)) (UniProt Q9QUR7)
Assay: co-IP; endogenous proteins; MDA-MB-231 cells and transgenic mouse cells treated with 10 μM MG132 for 12 h, precipitated with IgG or anti-PIN1 antibodies

## endogenous Cdh1 of transgenic mouse cells (from UniProt Q9R1K5 1-493)
  binding: binds
